Test results as given in the supplement of paper PMC6078165.
The reference is the same well before dosing, and untreated signal decays as well.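 Fibroblast labels denote human fibroblasts, mainly primary ones from uterus (C12385, HUF), lung (H6013), bone (Hs27A), adrenal (HADF) and skin (WS1), plus mammary HMF and breast cancer-associated Hs343T. Cancer cells are basal-like or mesenchymal-like triple-negative breast cancer lines. A hit is a response shift exceeding 3x replicate standard deviation. The tissue of the other fibroblasts is not given here.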

Tested on: Hs578T
Test: relative JC-1 red fluorescence (viability) vs pre-drug, coculture with fibroblast (fraction); higher = more viable cancer cells
Experimental: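 JC-1 labelled TNBC cells cocultured 1:1 (1,500 cells each) with CellTrace Violet stained primary or stromal fibroblasts in 384-well plates in FluoroBrite medium, treated with one of 42 anticancer drugs at 0.1, 1, 10 or 100 uM. JC-1 red fluorescence (mitochondrial integrity in cancer cells only) was read by plate reader every 8 h for 72 h. Values are normalised to each well's pre-drug value. The stock of one drug was tenfold lower, so its dose labels may be too high.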

Nc1ncn([C@@H]2O[C@H](CO)[C@@H](O)[C@H]2O)c(=O)n1 [Azacitidine]
relative JC-1 red fluorescence
Details	8 h	16 h	24 h	32 h	40 h	48 h	56 h	64 h	72 h
0.1 µM	0.8664	0.791	0.752	0.715	0.659	0.625	0.601	0.567	0.56
1 µM	0.902	0.814	0.785	0.757	0.703	0.6574	0.63	0.582	0.557

relative JC-1 red fluorescence
Details	8 h	16 h	24 h	32 h	40 h	48 h	56 h	64 h	72 h
0.1 µM, coculture fibroblast: C12385	0.8061	0.7404	0.74	0.636	0.582	0.568	0.554	0.565	0.571
0.1 µM, coculture fibroblast: H6013	0.837	0.8134	0.7938	0.7843	0.77989	0.788	0.791	0.804	0.794
0.1 µM, coculture fibroblast: H6019	0.7772	0.723	0.713	0.607	0.573	0.552	0.523	0.514	0.498
0.1 µM, coculture fibroblast: H6076	0.88	0.818	0.78	0.768	0.735	0.742	0.73	0.731	0.7298
0.1 µM, coculture fibroblast: H6231	0.8524	0.792	0.745	0.701	0.642	0.619	0.584	0.579	0.582
0.1 µM, coculture fibroblast: HADF	0.88	0.837	0.795	0.761	0.748	0.741	0.737	0.759	0.747
0.1 µM, coculture fibroblast: HCFa	0.859	0.827	0.8	0.766	0.73	0.721	0.714	0.713	0.689
0.1 µM, coculture fibroblast: HCPF	0.886	0.788	0.7498	0.7282	0.685	0.668	0.6596	0.634	0.618
0.1 µM, coculture fibroblast: HHSteC	0.862	0.808	0.763	0.717	0.687	0.666	0.663	0.644	0.631
0.1 µM, coculture fibroblast: HMF	0.811	0.725	0.6798	0.667	0.621	0.607	0.589	0.58	0.585
0.1 µM, coculture fibroblast: HPFa	0.891	0.863	0.839	0.81	0.8	0.797	0.778	0.768	0.743
0.1 µM, coculture fibroblast: HUF	0.804	0.6919	0.661	0.553	0.494	0.465	0.44	0.443	0.443
0.1 µM, coculture fibroblast: Hs27A	0.892	0.877	0.848	0.82	0.778	0.784	0.761	0.769	0.741
0.1 µM, coculture fibroblast: Hs343T	0.836	0.723	0.67	0.651	0.585	0.564	0.543	0.532	0.545
0.1 µM, coculture fibroblast: WS1	0.7766	0.7016	0.701	0.609	0.557	0.55	0.53	0.545	0.552
1 µM, coculture fibroblast: C12385	0.81917	0.717	0.68	0.586	0.52	0.484	0.452	0.441	0.438
1 µM, coculture fibroblast: H6013	0.851	0.79	0.735	0.702	0.654	0.641	0.616	0.609	0.581
1 µM, coculture fibroblast: H6019	0.756	0.655	0.622	0.515	0.466	0.434	0.402	0.378	0.347
1 µM, coculture fibroblast: H6076	0.878	0.816	0.779	0.749	0.706	0.697	0.678	0.672	0.665
1 µM, coculture fibroblast: H6231	0.91	0.8099	0.734	0.675	0.60729	0.5641	0.5132	0.4787	0.4627
1 µM, coculture fibroblast: HADF	0.867	0.759	0.697	0.648	0.611	0.579	0.552	0.542	0.513
1 µM, coculture fibroblast: HCFa	0.819	0.763	0.715	0.672	0.615	0.587	0.552	0.532	0.491
1 µM, coculture fibroblast: HCPF	0.9284	0.821	0.747	0.694	0.644	0.619	0.6	0.561	0.539
1 µM, coculture fibroblast: HHSteC	0.8624	0.7643	0.712	0.669	0.621	0.595	0.568	0.54	0.503
1 µM, coculture fibroblast: HMF	0.8562	0.794	0.767	0.755	0.718	0.706	0.684	0.67	0.671
1 µM, coculture fibroblast: HPFa	0.932	0.862	0.808	0.769	0.73	0.694	0.642	0.6	0.552
1 µM, coculture fibroblast: HUF	0.869	0.733	0.731	0.627	0.571	0.539	0.505	0.5	0.502
1 µM, coculture fibroblast: Hs27A	0.8721	0.809	0.779	0.738	0.676	0.665	0.623	0.606	0.562
1 µM, coculture fibroblast: Hs343T	0.871	0.768	0.71	0.693	0.632	0.608	0.584	0.564	0.57
1 µM, coculture fibroblast: WS1	0.766	0.6797	0.6502	0.574	0.5203	0.508	0.481	0.472	0.464
